Reference: the supplement of paper PMC10849652
The list shows a part of the results.

Amino acid sequences for entries named in this document (tags omitted). A change or cut given only in a name is not applied to a line headed by its entry.
UniProt P24468: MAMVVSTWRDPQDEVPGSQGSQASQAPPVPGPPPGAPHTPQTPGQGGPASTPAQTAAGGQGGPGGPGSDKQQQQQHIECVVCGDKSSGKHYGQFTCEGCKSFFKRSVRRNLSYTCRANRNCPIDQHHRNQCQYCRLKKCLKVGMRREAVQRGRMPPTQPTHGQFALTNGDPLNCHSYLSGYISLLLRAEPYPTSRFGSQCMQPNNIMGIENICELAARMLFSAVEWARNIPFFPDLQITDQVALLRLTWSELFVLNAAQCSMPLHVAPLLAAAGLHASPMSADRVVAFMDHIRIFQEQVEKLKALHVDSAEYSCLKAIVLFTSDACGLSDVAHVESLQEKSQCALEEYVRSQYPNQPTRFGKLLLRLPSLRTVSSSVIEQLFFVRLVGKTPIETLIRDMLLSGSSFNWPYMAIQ
UniProt O60524: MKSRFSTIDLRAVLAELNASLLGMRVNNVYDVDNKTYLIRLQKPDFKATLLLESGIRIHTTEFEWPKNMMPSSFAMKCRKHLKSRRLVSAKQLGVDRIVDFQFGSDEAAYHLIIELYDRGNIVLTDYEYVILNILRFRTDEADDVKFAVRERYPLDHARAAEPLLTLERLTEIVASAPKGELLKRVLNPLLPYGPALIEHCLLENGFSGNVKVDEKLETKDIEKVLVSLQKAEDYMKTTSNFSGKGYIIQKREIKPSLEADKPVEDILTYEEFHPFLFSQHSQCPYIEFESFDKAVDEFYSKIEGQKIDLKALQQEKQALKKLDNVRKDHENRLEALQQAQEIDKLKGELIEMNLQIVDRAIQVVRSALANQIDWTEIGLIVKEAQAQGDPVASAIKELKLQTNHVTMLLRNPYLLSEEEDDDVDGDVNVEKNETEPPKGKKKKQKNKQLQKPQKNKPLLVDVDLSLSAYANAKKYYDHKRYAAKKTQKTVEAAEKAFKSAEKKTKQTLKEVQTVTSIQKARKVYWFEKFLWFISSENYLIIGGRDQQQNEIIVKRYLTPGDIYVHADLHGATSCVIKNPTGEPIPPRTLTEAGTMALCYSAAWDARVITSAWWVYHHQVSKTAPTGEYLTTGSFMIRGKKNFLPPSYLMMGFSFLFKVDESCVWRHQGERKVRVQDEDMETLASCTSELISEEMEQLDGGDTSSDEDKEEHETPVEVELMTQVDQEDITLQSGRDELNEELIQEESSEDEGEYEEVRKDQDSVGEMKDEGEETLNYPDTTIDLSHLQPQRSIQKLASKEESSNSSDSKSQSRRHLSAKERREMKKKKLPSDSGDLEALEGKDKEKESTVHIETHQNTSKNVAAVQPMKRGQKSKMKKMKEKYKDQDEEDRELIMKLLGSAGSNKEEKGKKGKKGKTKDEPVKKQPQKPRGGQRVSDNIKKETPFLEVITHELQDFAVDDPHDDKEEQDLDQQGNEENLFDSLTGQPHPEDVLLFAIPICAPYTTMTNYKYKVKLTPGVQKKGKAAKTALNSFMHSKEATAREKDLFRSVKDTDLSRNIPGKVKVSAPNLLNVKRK
UniProt Q8TAT6: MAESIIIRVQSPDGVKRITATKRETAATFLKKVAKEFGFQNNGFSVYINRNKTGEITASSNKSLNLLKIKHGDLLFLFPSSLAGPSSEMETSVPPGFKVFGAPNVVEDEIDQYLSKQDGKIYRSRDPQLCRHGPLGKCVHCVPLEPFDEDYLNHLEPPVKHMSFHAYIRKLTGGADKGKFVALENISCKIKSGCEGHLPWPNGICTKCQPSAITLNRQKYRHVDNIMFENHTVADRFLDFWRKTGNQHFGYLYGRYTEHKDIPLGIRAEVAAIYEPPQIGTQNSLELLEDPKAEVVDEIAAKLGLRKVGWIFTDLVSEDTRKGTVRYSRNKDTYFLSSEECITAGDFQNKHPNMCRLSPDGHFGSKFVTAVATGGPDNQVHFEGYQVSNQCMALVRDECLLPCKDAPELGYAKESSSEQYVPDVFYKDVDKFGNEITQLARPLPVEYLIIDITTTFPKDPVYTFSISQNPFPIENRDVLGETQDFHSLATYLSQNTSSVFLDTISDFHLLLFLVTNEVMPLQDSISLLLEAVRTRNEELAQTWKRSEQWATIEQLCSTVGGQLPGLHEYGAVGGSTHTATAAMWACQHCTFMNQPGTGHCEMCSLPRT
UniProt Q9UMS0: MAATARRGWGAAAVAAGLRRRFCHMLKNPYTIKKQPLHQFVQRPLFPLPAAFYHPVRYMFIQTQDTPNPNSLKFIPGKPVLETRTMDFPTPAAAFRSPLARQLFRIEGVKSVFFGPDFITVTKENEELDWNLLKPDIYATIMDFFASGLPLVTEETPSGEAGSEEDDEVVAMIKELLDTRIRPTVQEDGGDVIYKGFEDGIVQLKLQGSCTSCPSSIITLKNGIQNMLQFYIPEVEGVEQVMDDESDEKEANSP
UniProt Q8N8Q9: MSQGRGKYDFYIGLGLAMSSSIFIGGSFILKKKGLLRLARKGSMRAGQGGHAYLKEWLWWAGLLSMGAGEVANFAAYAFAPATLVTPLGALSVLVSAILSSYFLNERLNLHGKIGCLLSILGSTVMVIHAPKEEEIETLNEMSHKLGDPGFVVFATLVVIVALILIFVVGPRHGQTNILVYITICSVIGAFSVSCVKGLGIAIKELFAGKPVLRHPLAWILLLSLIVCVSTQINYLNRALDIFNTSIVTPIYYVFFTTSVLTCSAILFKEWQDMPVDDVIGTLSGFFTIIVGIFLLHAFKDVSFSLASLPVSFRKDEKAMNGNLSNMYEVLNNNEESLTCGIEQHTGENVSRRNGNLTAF
UniProt Q9NX02: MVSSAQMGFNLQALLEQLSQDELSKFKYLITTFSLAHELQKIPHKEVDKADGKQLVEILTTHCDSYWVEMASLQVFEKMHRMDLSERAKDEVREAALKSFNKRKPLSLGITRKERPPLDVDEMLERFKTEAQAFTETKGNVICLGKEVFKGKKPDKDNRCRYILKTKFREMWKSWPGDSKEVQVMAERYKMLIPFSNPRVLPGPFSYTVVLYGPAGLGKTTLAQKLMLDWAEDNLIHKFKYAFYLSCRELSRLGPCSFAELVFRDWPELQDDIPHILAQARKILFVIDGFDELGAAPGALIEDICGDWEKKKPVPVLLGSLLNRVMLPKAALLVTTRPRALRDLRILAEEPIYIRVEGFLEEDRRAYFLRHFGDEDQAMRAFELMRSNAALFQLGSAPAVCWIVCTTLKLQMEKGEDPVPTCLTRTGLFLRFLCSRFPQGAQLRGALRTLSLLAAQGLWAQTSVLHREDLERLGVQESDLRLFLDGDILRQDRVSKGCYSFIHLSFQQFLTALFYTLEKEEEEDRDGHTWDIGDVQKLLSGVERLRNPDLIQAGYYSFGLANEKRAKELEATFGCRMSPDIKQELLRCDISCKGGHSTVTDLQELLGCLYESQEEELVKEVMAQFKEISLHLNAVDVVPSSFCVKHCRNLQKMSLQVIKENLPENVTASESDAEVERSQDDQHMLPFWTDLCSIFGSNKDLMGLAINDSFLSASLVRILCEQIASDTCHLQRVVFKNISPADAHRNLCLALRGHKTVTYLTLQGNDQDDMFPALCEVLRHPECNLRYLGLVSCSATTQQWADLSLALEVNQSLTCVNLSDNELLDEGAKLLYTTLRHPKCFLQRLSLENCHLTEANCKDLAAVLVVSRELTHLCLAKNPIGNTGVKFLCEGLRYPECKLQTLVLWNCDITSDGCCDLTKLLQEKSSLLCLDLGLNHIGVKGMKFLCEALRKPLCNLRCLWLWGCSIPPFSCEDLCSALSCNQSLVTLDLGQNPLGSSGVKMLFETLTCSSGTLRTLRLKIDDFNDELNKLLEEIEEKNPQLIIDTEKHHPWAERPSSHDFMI
UniProt Q9BXD5: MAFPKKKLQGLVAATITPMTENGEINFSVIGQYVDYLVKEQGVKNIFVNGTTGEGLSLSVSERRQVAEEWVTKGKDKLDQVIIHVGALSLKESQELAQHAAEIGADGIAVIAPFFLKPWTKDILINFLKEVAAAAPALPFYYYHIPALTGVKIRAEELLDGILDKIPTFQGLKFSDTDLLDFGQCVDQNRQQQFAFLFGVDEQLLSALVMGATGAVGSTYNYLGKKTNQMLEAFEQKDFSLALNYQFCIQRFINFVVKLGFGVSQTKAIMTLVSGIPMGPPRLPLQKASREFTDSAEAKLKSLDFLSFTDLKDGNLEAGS
UniProt P35240: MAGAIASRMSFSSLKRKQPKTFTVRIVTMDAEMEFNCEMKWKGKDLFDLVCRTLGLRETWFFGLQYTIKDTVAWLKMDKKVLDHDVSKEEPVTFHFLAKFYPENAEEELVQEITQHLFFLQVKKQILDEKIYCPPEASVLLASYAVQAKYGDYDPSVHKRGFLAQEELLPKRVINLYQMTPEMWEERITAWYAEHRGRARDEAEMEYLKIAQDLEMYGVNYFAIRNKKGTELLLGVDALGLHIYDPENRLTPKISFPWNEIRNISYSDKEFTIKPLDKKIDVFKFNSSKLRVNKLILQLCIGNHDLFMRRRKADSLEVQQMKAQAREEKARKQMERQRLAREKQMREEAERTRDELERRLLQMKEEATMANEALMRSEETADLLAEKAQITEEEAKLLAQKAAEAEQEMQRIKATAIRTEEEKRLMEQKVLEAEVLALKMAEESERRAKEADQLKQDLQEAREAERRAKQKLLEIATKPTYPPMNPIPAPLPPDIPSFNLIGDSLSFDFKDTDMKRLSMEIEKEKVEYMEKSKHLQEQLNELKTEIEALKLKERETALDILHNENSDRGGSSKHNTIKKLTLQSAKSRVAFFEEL
UniProt Q9BYG3: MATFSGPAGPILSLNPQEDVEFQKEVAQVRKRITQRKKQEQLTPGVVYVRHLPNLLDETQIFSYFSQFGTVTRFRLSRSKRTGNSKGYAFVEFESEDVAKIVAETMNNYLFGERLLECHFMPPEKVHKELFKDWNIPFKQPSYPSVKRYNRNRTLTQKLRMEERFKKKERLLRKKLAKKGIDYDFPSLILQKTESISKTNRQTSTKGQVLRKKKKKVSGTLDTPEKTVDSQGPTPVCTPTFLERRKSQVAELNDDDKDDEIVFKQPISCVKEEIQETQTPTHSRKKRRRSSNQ
UniProt Q9NQR4: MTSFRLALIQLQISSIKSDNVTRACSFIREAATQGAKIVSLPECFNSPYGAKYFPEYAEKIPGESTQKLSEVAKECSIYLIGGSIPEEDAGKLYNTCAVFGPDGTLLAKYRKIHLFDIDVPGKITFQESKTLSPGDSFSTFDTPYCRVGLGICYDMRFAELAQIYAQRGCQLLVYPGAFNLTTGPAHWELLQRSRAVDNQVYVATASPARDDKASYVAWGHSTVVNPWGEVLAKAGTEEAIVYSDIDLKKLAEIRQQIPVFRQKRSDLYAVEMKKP
UniProt P23511, whole entry, looked up: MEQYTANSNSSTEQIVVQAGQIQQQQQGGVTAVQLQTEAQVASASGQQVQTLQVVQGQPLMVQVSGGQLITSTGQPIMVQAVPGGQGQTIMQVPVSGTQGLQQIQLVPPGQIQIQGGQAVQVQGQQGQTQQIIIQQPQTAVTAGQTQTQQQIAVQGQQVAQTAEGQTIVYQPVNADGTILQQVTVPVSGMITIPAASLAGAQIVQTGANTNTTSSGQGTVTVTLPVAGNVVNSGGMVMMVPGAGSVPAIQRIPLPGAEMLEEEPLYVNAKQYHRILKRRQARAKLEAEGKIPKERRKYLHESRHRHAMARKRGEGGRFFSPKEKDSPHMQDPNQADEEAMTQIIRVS
UniProt Q8NC60: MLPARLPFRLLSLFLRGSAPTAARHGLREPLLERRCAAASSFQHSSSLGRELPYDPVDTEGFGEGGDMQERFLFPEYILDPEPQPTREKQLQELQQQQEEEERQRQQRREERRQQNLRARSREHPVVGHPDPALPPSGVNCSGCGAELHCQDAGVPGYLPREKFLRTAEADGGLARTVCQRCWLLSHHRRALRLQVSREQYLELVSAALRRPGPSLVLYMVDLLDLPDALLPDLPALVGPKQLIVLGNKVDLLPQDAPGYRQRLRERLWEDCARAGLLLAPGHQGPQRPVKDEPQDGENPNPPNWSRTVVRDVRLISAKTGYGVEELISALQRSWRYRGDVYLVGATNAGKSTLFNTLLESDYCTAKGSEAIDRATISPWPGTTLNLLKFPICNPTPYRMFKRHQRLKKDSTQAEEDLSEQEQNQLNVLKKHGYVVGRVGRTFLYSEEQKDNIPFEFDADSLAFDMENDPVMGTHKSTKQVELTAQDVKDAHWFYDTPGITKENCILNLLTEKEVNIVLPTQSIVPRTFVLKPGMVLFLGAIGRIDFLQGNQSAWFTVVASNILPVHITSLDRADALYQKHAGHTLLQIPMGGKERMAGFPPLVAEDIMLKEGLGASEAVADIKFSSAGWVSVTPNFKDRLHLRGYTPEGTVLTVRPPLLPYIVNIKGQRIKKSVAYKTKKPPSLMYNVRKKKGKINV

Experiments:
Test in all cases: log2 fold change, soluble protein after heating vs DMSO (PISA); higher = thermal stabilisation; K562 cells, 10 uM, 30 min; active = over 0.2 and 3.5 SD of the protein, either way, in both replicates (recomputed)
[1] = compound: COC1=CC=C(C=C1)CN2C=CC3=C2C=C(C=C3)C(=O)NO
Method in brief: (§1)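 K562 cells (2×10^6 cells/mL) were treated with 10 μM compound for 30 min, and aliquots were heated for 3 min over 48°C-58°C. Pooled aliquots were extracted in PBS with 0.5% NP-40 at 4°C, and the supernatant after 21,000xg for 90 min was measured by TMTpro 16plex LC-MS/MS with channel sums equalised. Reported thermal stability, relative to control samples and from duplicates, is a log2 fold change.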

[2] = compound: CON(C)C(=O)N1N=C(c2cc(F)ccc2F)S[C@@]1(CCCN)c1ccccc1 [filanesib]
Method in brief: as §1

[3] = compound: CO[C@H]1C[C@@H]2CC[C@@H](C)[C@@](O)(O2)C(=O)C(=O)N2CCCC[C@H]2C(=O)O[C@H]([C@H](C)C[C@@H]2CC[C@H](n3cnnn3)[C@H](OC)C2)CC(=O)[C@H](C)/C=C(\C)[C@@H](O)[C@@H](OC)C(=O)[C@H](C)C[C@H](C)/C=C/C=C/C=C/1C [zotarolimus]
Method in brief: as §1

[4] = compound: COc1cc(C(=O)O)ccc1NC(=O)[C@@H]1N[C@@H](CC(C)(C)C)[C@](C#N)(c2ccc(Cl)cc2F)[C@H]1c1cccc(Cl)c1F [idasanutlin]
Method in brief: as §1

[5] = compound: COc1cc(Nc2ncc3c(n2)-c2ccc(Cl)cc2C(c2c(F)cccc2OC)=NC3)ccc1C(=O)O [alisertib]
Method in brief: as §1

[6] = compound: COc1cc2nc(-c3cc(F)ccc3O)nc(N[C@@H]3CNC[C@H]3C(C)(C)O)c2cc1OC
Method in brief: as §1

[7] = compound: COc1cc2ncnc(Nc3ccc(F)c(Cl)c3)c2cc1OCCCN1CCOCC1 [gefitinib]
Method in brief: as §1

[8] = compound: COc1cccc2cc(-c3nc([C@H]4CC[C@H](C(=O)O)CC4)n4ncnc(N)c34)[nH]c12
Method in brief: as §1

[9] = compound: CS(=O)(=O)CCNCc1ccc(-c2ccc3ncnc(Nc4ccc(OCc5cccc(F)c5)c(Cl)c4)c3c2)o1 [lapatinib]
Method in brief: as §1

[10] = compound: CS(=O)(=O)N1CCN(Cc2cc3nc(-c4cccc5[nH]ncc45)nc(N4CCOCC4)c3s2)CC1 [pictilisib]
Method in brief: as §1

[11] = compound: CS(=O)(=O)c1ccc(-c2cnc(N)c(C(=O)Nc3ccccc3)n2)cc1
Method in brief: as §1

[12] = compound: C[C@@H](Oc1cc(-c2cnn(C3CCNCC3)c2)cnc1N)c1c(Cl)ccc(F)c1Cl [crizotinib]
Method in brief: as §1

[13] = compound: C[C@@H]1COCCN1C2=NC(=NC(=C2)C3(CC3)S(=O)(=O)C)C4=C5C=CNC5=CC=C4
Method in brief: as §1

[14] = compound: C[C@H](C1=CC=C(C=C1)C(=O)NC2=C3C=CNC3=NC=C2)N
Method in brief: as §1

[15] = compound: C[C@H](Nc1ncnc2nc[nH]c12)c1cc2cccc(Cl)c2c(=O)n1-c1ccccc1 [duvelisib]
Method in brief: as §1

[16] = compound: Cc1cc(Nc2cc(CN3CCOCC3)c3nc(C)c(Cc4ccc(Cl)cc4F)n3n2)n[nH]1 [gandotinib]
Method in brief: as §1

[17] = compound: Cc1cc(Nc2cc(N3CCN(C)CC3)nc(Sc3ccc(NC(=O)C4CC4)cc3)n2)n[nH]1 [tozasertib]
Method in brief: as §1

[18] = compound: Cc1cc(SCc2sc(-c3ccc(C(F)(F)F)cc3)nc2C)ccc1OCC(=O)O
Method in brief: as §1

[19] = compound: Cc1ccc(-n2nc(C(C)(C)C)cc2NC(=O)Nc2ccc(OCCN3CCOCC3)c3ccccc23)cc1 [doramapimod]
Method in brief: as §1

[20] = compound: Cc1ccc(C(=O)N(CCCN)[C@@H](c2nc3cc(Cl)ccc3c(=O)n2Cc2ccccc2)C(C)C)cc1 [ispinesib]
Method in brief: as §1

Measured: log2 fold change

NR2F2 (UniProt P24468)
inactive: [1] -0.038 | [2] 0.022 | [3] -0.02 | [4] -0.146 | [5] -0.051 | [6] 0.017 | [7] 0.039 | [8] -0.006 | [9] 0.029 | [10] 0.007 | [11] 0.038 | [12] 0.081 | [13] 0.038 | [14] -0.054 | [15] 0.078 | [16] -0.008 | [17] 0.036 | [18] 0.084 | [19] -0.022 | [20] 0.039

NEMF (UniProt O60524)
inactive: [1] -0.048 | [2] 0.4 | [3] 0.049 | [4] 0.193 | [5] -0.076 | [6] 0.012 | [7] -0.067 | [8] -0.319 | [9] 0.018 | [10] -0.143 | [11] -0.039 | [12] 0.006 | [13] -0.445 | [14] 0.31 | [15] -0.234 | [16] 0.213 | [17] -0.007 | [18] 0.027 | [19] 0.295 | [20] -0.257

NPLOC4 isoform 2 (UniProt Q8TAT6)
inactive: [1] 0.055 | [2] -0.067 | [3] -0.036 | [4] -0.063 | [5] -0.086 | [6] 0.027 | [7] 0.025 | [8] 0.019 | [9] -0.02 | [10] -0.015 | [11] 0.006 | [12] 0.007 | [13] 0.084 | [14] -0.057 | [15] 0.011 | [16] -0.016 | [17] -0.007 | [18] 0.004 | [19] -0.033 | [20] 0.028

NFU1 (UniProt Q9UMS0)
inactive: [1] -0.033 | [2] -0.083 | [3] 0.029 | [4] -0.019 | [5] -0.071 | [6] -0.036 | [7] -0.002 | [8] 0.014 | [9] -0.008 | [10] -0.03 | [11] -0.024 | [12] 0.059 | [13] 0.083 | [14] -0.026 | [15] 0.064 | [16] -0.018 | [17] 0.039 | [18] -0.01 | [19] 0.009 | [20] 0.031

NIPA2 (UniProt Q8N8Q9)
inactive: [1] -0.033 | [2] -0.024 | [3] -0.109 | [4] 0.016 | [5] 0.002 | [6] 0.015 | [7] -0.044 | [8] 0.018 | [9] 0.031 | [10] 0.011 | [11] 0.076 | [12] 0.031 | [13] -0.008 | [14] -0.344 | [15] -0.042 | [16] -0.077 | [17] -0.002 | [18] 0.164 | [19] 0.036 | [20] -0.024

NLRP2 (UniProt Q9NX02)
inactive: [1] -0.015 | [2] 0.121 | [3] 0.017 | [4] -0.007 | [5] 0.003 | [6] -0.006 | [7] 0.058 | [8] -0.108 | [9] 0.02 | [10] 0.056 | [11] 0.084 | [12] -0.08 | [13] -0.03 | [14] 0.183 | [15] -0.003 | [16] -0.04 | [17] 0.098 | [18] 0.105 | [19] 0.112 | [20] -0.059

NPL (UniProt Q9BXD5)
inactive: [1] -0.075 | [2] -0.009 | [3] 0 | [4] -0.02 | [5] -0.06 | [6] 0.011 | [7] 0.066 | [8] 0.049 | [9] 0.149 | [10] 0.034 | [11] 0.033 | [12] -0.035 | [13] 0.025 | [14] 0.189 | [15] 0.014 | [16] -0.18 | [17] 0.124 | [18] 0.039 | [19] 0.067 | [20] 0.317

NF2 (UniProt P35240)
inactive: [1] -0.006 | [2] -0.036 | [3] 0.018 | [4] 0.042 | [5] -0.119 | [6] 0.021 | [7] 0.123 | [8] 0.016 | [9] -0.029 | [10] -0.044 | [11] -0.088 | [12] 0.019 | [13] 0.056 | [14] -0.053 | [15] 0.017 | [16] -0.057 | [17] -0.029 | [18] 0.028 | [19] 0.017 | [20] -0.094

NFAT5 isoform 5 (UniProt O94916)
inactive: [1] -0.079 | [2] 0.1 | [3] 0.1 | [4] -0.237 | [5] 0.006 | [6] -0.114 | [7] -0.029 | [8] 0.319 | [9] 0.005 | [10] 0.111 | [11] 0.052 | [12] 0.061 | [13] 0.063 | [14] 0.086 | [15] 0.028 | [16] -0.032 | [17] 0 | [18] -0.142 | [19] 0.101

2 consecutive entries from above, quoted:
NF2 (UniProt P35240)
inactive: [1] -0.006 | [2] -0.036 | [3] 0.018 | [4] 0.042 | [5] -0.119 | [6] 0.021 | [7] 0.123 | [8] 0.016 | [9] -0.029 | [10] -0.044 | [11] -0.088 | [12] 0.019 | [13] 0.056 | [14] -0.053 | [15] 0.017 | [16] -0.057 | [17] -0.029 | [18] 0.028 | [19] 0.017 | [20] -0.094

NFAT5 isoform 5 (UniProt O94916)
inactive: [1] -0.079 | [2] 0.1 | [3] 0.1 | [4] -0.237 | [5] 0.006 | [6] -0.114 | [7] -0.029 | [8] 0.319 | [9] 0.005 | [10] 0.111 | [11] 0.052 | [12] 0.061 | [13] 0.063 | [14] 0.086 | [15] 0.028 | [16] -0.032 | [17] 0 | [18] -0.142 | [19] 0.101

Remaining list, next part.

NRAS (UniProt P01111)
inactive: [1] -0.014 | [2] 0.053 | [3] -0.015 | [4] 0.009 | [5] -0.074 | [6] 0.046 | [7] 0 | [8] 0.009 | [9] -0.013 | [10] -0.05 | [11] 0.05 | [12] 0.103 | [13] 0.005 | [14] -0.06 | [15] -0.02 | [16] -0.04 | [17] -0.086 | [18] -0.035 | [19] -0.019 | [20] 0.048

NIFK (UniProt Q9BYG3)
inactive: [1] -0.089 | [2] 0.28 | [3] 0.055 | [4] 0.08 | [5] -0.054 | [6] 0.062 | [7] -0.001 | [8] 0.1 | [9] -0.037 | [10] 0.155 | [11] 0.023 | [12] -0.032 | [13] -0.428 | [14] 0.328 | [15] 0.053 | [16] 0.347 | [17] -0.017 | [18] -0.012 | [19] 0.021 | [20] -0.072

NIT2 (UniProt Q9NQR4)
inactive: [1] 0.014 | [2] -0.002 | [3] 0.035 | [4] -0.048 | [5] 0.007 | [6] 0.035 | [7] 0.027 | [8] 0.016 | [9] -0.041 | [10] 0.089 | [11] 0.046 | [12] 0.047 | [13] 0.105 | [14] -0.042 | [15] 0.076 | [16] 0.057 | [17] -0.012 | [18] -0.02 | [19] -0.046 | [20] -0.025

NFYA (UniProt P23511)
inactive: [1] -0.064 | [2] -0.128 | [3] 0.003 | [4] -0.04 | [5] -0.082 | [6] 0.079 | [7] 0.009 | [8] 0.088 | [9] 0.033 | [10] 0.065 | [11] 0.148 | [12] -0.111 | [13] 0.153 | [14] -0.004 | [15] -0.055 | [16] 0.086 | [17] 0.012 | [18] 0.109 | [19] 0.069 | [20] 0.06

NFS1 (UniProt Q9Y697)
inactive: [1] -0.012 | [2] -0.05 | [3] 0.019 | [4] -0.034 | [5] -0.009 | [6] 0.06 | [7] 0.028 | [8] 0.025 | [9] -0.031 | [10] -0.008 | [11] 0.026 | [12] 0.071 | [13] 0.084 | [14] -0.03 | [15] 0.065 | [16] 0 | [17] -0.036 | [18] 0.024 | [19] -0.031 | [20] 0.075

NRBF2 (UniProt Q96F24)
inactive: [1] -0.017 | [2] -0.005 | [3] -0.011 | [4] 0.012 | [5] 0.146 | [6] -0.025 | [7] -0.008 | [8] -0.017 | [9] 0.055 | [10] 0.102 | [11] 0.009 | [12] 0.034 | [13] 0.098 | [14] -0.021 | [15] 0.119 | [16] 0.062 | [17] -0.079 | [18] -0.008 | [19] 0.022 | [20] 0.034

NOA1 (UniProt Q8NC60)
inactive: [1] -0.049 | [2] 0.08 | [3] -0.07 | [4] -0.068 | [5] 0.006 | [6] -0.044 | [7] -0.027 | [8] -0.078 | [9] -0.005 | [10] -0.004 | [11] -0.026 | [12] 0.076 | [13] -0.162 | [14] 0.01 | [15] 0.032 | [16] -0.197 | [17] -0.13 | [18] 0.016 | [19] 0.047 | [20] -0.079
